Measurements from article PMC9947421.
No constants are given. Whether binding was seen depends on the method and setting. In cells and extracts the contact can be indirect. Some entries that bind do so weakly or less than the wild type.

By UniProt entry, the sequences of proteins in these tests, tags left out.
UniProt Q99594: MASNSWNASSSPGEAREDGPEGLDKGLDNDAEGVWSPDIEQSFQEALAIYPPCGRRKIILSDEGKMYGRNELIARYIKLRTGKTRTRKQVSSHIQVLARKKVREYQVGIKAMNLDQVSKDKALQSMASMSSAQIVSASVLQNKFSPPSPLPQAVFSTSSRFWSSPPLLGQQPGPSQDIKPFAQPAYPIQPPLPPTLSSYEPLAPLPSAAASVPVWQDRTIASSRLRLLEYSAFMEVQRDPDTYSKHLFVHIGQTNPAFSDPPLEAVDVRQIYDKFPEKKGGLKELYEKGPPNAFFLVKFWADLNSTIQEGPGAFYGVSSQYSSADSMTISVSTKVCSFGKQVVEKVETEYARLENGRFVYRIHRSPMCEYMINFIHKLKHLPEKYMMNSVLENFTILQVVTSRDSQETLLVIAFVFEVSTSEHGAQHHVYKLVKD
UniProt P12956: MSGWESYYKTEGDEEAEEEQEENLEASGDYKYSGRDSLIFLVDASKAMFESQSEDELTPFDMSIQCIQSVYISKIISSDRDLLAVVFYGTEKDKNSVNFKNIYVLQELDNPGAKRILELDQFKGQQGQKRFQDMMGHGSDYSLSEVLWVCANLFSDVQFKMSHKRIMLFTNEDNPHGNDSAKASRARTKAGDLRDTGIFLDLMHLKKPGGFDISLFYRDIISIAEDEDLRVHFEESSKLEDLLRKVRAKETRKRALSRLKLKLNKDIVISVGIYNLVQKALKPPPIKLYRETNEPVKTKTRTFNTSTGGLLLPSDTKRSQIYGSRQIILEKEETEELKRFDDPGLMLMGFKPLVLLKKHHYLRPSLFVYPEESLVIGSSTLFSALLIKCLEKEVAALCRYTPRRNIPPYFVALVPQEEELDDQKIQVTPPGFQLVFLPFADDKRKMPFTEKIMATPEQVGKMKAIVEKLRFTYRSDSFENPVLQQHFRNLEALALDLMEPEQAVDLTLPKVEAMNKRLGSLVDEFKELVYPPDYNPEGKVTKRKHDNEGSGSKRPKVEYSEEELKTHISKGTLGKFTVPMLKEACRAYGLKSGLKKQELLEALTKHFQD
UniProt P13010: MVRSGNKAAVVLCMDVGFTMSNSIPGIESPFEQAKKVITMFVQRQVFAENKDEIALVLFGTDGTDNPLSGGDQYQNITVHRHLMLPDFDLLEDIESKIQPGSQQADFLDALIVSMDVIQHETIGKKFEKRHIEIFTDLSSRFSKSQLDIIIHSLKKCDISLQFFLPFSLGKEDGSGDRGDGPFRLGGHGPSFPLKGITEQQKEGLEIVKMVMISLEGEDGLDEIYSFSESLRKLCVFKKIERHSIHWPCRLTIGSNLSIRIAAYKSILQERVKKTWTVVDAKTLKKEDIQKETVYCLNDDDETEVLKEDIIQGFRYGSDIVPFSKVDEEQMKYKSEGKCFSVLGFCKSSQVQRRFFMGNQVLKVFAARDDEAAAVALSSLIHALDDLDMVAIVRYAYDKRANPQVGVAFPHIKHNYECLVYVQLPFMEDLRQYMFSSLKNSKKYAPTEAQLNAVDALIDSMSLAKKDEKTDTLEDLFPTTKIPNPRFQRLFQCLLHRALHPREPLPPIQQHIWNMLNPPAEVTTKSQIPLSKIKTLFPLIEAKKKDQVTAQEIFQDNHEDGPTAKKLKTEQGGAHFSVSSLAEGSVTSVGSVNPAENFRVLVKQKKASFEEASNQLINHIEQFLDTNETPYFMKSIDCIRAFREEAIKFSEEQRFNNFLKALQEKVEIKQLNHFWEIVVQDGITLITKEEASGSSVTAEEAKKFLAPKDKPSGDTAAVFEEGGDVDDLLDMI
UniProt P09874: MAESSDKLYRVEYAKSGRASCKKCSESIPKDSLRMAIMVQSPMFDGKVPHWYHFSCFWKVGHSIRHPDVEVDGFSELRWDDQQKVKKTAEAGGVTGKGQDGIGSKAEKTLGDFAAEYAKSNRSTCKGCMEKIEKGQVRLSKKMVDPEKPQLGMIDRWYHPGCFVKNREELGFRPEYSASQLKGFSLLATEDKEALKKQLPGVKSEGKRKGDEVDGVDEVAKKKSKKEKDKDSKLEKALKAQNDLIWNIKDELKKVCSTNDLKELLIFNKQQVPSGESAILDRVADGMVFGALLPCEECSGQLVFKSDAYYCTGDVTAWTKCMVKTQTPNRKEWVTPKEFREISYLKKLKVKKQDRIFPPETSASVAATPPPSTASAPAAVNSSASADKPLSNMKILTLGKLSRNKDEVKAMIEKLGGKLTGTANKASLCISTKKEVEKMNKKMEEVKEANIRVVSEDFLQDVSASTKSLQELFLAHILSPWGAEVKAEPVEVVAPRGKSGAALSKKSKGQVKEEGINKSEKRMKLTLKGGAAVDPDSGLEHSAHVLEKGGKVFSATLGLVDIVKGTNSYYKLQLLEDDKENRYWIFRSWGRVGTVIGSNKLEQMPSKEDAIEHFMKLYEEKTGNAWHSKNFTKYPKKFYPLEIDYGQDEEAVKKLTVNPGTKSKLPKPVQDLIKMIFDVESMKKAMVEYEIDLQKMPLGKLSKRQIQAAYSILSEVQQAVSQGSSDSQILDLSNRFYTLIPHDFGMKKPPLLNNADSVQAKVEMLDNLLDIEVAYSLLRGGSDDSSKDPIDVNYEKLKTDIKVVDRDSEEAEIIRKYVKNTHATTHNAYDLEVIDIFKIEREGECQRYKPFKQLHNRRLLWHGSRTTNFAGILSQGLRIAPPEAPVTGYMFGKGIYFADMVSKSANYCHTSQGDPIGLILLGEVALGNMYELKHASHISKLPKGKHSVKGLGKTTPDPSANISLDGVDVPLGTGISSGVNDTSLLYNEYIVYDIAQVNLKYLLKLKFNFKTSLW
UniProt Q5UIP0: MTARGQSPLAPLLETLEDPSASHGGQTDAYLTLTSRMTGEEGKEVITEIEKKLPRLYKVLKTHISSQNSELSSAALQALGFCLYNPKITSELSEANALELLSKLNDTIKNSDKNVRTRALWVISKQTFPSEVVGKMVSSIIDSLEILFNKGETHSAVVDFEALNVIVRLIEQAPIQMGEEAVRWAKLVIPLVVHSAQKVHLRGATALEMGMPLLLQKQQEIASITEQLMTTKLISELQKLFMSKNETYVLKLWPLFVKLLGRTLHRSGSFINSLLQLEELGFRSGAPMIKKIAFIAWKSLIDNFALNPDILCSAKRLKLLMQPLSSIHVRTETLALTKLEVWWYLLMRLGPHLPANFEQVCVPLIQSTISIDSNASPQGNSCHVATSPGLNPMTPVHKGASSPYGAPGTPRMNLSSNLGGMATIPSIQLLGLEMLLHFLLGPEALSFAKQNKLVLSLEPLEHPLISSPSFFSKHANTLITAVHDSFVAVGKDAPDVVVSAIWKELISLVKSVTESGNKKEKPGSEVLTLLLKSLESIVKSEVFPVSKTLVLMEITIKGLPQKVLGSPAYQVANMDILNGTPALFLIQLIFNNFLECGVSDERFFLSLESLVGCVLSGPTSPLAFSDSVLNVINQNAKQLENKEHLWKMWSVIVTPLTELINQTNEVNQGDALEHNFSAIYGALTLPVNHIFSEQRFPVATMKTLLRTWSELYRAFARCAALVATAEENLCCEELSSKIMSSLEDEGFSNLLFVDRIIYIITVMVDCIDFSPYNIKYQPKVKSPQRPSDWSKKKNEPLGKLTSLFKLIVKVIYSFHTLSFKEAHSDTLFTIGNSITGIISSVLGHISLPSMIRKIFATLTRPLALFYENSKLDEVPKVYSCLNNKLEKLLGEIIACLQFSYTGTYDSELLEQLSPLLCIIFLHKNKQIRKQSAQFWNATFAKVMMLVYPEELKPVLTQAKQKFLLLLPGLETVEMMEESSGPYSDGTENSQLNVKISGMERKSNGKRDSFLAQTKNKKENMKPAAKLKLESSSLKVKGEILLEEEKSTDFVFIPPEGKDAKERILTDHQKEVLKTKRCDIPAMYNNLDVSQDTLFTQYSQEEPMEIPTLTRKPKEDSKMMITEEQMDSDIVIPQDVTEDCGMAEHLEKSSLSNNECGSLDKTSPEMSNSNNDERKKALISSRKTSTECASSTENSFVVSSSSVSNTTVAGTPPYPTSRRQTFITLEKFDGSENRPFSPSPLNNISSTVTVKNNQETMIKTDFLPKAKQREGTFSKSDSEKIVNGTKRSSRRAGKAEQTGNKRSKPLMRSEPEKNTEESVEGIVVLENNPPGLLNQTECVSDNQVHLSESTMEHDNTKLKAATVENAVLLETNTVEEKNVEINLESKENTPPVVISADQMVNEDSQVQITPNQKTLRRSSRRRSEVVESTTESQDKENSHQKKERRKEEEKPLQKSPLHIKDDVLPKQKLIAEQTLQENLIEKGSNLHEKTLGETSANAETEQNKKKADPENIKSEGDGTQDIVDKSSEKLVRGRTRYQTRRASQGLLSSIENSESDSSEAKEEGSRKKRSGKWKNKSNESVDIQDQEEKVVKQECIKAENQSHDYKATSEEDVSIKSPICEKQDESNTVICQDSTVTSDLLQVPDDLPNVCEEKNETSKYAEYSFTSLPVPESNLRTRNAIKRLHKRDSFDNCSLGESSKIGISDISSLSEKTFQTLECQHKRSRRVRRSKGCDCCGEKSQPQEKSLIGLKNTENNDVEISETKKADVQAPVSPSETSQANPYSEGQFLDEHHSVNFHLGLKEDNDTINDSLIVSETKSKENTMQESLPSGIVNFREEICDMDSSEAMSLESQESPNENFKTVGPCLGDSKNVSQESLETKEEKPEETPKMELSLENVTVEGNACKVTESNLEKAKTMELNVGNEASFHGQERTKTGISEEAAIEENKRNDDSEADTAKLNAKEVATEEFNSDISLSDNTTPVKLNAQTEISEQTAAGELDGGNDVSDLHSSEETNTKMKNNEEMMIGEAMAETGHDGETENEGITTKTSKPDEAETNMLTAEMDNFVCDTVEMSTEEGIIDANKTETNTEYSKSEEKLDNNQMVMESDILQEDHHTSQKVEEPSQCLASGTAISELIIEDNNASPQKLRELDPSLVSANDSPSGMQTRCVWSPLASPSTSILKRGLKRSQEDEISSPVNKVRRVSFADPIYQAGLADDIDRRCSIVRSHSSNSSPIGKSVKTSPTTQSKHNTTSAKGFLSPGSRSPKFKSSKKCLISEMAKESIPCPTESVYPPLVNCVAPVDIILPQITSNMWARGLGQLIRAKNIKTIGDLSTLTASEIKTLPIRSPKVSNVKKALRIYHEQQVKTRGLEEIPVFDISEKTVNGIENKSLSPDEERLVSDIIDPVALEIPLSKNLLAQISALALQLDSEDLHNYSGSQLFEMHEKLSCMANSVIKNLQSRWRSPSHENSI

Target: WT TEAD3-Myc/Flag (human) (UniProt Q99594)
Assay: co-IP; anti-Myc IP of MYC-tagged WT or NLS mutant TEAD3 from cell lysates, Western blot of endogenous partners; WT TEAD3 also after 20 μg/ml bleomycin for the indicated time points; lysis buffer with universal nuclease

binding, binds:
X-ray repair cross-complementing protein 6 (XRCC6) (from UniProt P12956 1-609)
X-ray repair cross-complementing protein 5 (XRCC5) (from UniProt P13010 1-732)
poly(ADP-ribose) polymerase 1 (PARP1) (from UniProt P09874 1-1014)
Rap1-interacting factor 1 (RIF1) (from UniProt Q5UIP0 1-2472)
